According to publication PMC3510498:
No constants are given. Whether binding was seen depends on the method and setting.

Target: Thermoanaerobacter tengcongensis RecO (Thermoanaerobacter tengcongensis MB4) (UniProt Q8RB48)
Assay: SEC + AUC; SEC: Superdex-200, 0.5 ml/min, 50 mM Tris-HCl pH 7.5, 300 mM NaCl, 200 µg/ml; AUC: 20°C, 1 mg/ml in 5 mM Tris-HCl pH 7.5, 50 mM NaCl, 60 000 rpm (TTERecR, TTERecO) or 55 000 rpm (TTERecOR complex), SEDFIT; both purified

Question: How did the binding turn out when “Thermoanaerobacter tengcongensis RecO (from UniProt Q8RB48 1-247)” was run?
Answer: no binding
